From paper doi:10.1101/2025.05.22.655396 come the findings set out here.

Amino acid sequences for entries named in this document (tags omitted).
UniProt Q07820: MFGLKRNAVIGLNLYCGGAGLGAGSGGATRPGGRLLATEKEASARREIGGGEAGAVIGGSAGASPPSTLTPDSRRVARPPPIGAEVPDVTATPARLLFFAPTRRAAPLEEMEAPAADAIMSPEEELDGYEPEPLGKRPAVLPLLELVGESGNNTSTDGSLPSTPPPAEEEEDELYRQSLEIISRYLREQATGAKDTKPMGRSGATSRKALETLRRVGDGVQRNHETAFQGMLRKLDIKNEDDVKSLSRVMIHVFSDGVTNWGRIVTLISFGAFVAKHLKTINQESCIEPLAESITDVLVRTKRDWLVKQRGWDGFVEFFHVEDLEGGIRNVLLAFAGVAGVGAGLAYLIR
UniProt Q7Z5L9: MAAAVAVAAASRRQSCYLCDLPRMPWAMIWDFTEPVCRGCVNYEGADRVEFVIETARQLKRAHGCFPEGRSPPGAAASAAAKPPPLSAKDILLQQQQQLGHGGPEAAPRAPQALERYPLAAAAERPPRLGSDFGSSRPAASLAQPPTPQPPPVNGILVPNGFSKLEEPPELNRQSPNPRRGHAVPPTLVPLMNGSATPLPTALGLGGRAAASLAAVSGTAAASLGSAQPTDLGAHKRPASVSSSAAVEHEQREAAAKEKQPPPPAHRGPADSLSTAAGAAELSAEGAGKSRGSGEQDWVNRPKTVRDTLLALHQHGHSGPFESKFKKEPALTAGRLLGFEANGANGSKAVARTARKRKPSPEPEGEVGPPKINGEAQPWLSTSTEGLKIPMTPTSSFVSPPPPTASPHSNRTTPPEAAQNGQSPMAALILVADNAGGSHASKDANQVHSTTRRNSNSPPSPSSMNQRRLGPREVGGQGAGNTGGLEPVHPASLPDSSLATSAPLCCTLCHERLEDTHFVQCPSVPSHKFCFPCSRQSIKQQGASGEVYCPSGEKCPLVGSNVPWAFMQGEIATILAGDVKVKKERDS

The experiment has as its target MCL1 (human (endogenous in primary AML cells)) (UniProt Q07820). Briefly: co-IP.

No constants are given. Whether binding was seen depends on the method and setting. Binding seen in cells or lysates may run through a third protein. Some binding calls cover weakened binding; strength is not graded here.

Regarding “Interferon Regulatory Factor 2 Binding Protein 2 (from UniProt Q7Z5L9 1-587)”, the binding entry is recorded as “binds”.
